Results published in patent publication US20210261642A1, “SOLUBILITY OF GLP-1 PEPTIDE” (Novo Nordisk A/S, priority 2017, published 2021).
Further values from the same series stand in other lists.

Experiment: Assay (I): Determination of Solubility (96-well plate, pH 3.0-11.0, organic solvent 0-70% w/w, UV absorption at 280 nm)
Assay type: physicochemical
Details: Method 1
Protocol: Assay (I): Determination of Solubility
96-Well Plate Preparation
96-well plates containing target peptide in a solid form were prepared in one of two ways:
Method 1 (evaporation): Addition of 100 μl stock solution of said peptide at a concentration of 4-6 mg/ml to each well of a 96-well half area plate (150 μl well size). Subsequently the solvent was evaporated by applying a vacuum until the solvent was completely removed.
Method 2 (precipitation): Addition of a certain volume of a stock solution of said peptide containing to each well of a 96-well half area plate followed by the addition of a certain volume of concentrated phosphoric acid to obtain a pH of 4.6 followed by addition of a certain volume of ethanol resulting in a final ethanol concentration of 20% v/v. Subsequently the plate was stored at 4° C. for 1 h and then centrifuged at 4,000 rpm for 20 min. Finally the supernatant was removed. The concentration of the stock solution was chosen in a way that the final amount of peptide after supernatant removal was >0.4 mg per well.
In both cases the stock solution was prepared by adding de-ionized water to a certain amount of powder of said peptide followed by a stepwise addition of small amounts of a concentrated sodium hydroxide solution until said peptide was completely in solution.
To determine solubility of a target peptide at different pH and organic solvent concentrations, two different buffer systems were used in independent experiments to cover the whole range from pH 3.0 to pH 11.0. Buffer system 1 covers pH 3.0-7.5 and buffer system 2 covers pH 7.5-11.0. For each buffer system 96 different solvent compositions were premixed in the following way: • 1. A low pH buffer (adjusted to either pH 3.0 or pH 7.5) and a high pH buffer (adjusted to either pH 7.5 or pH 11.0) were mixed at 8 different ratios to obtain values between pH 3.0 and pH 7.5 or pH 7.5 and pH 11.0, respectively. The total volume after mixing was 300 μl. • 2. 12 different amounts of organic solvent were then added to these buffers to obtain organic solvent (e.g. ethanol) concentrations between 0 and 70% w/w. • 3. Water was then added to obtain a total weight of 1.0 g of solvent in each well.
After preparing the 96 different solvent systems, 100 μl of each system was transferred to the 96-well plate containing the solid form of the target peptide (prepared as described in the section “96-well plate preparation”). The plate was then stored at a given temperature (between 5° C. and 70° C.) for a given time on a rotating shaker set to 400 rpm. At regular time intervals the plate was centrifuged (4,000 rpm for 10 min) and a 10 μl sample was taken from each well. The samples were then analysed by UV absorption at 280 nm for peptide quantification. Peptide concentration results are given as UV absorption at 280 nm of the sample subtracted UV absorption at 280 nm of a well comprising 10 μl water.
The buffers used were as follows: • Buffer system 1 (for the pH range from pH 3.0-7.5)
• Buffer system 2 (for the pH ranae from pH 7.5-11.0)
Solubility of liraglutide was determined using Assay (I) described herein. Liraglutide was prepared using Method 1 (evaporation) or Method 2 (precipitation) as described in subsection “96-well plate preparation”.

CCCCCCCCCCCCCCCC(=O)N[C@@H](CCC(=O)NCCCC[C@H](NC(=O)[C@H](C)NC(=O)[C@H](C)NC(=O)[C@H](CCC(N)=O)NC(=O)CNC(=O)[C@H](CCC(=O)O)NC(=O)[C@H](CC(C)C)NC(=O)[C@H](Cc1ccc(O)cc1)NC(=O)[C@H](CO)NC(=O)[C@H](CO)NC(=O)[C@@H](NC(=O)[C@H](CC(=O)O)NC(=O)[C@H](CO)NC(=O)[C@@H](NC(=O)[C@H](Cc1ccccc1)NC(=O)[C@@H](NC(=O)CNC(=O)[C@H](CCC(=O)O)NC(=O)[C@H](C)NC(=O)[C@@H](N)Cc1cnc[nH]1)[C@@H](C)O)[C@@H](C)O)C(C)C)C(=O)N[C@@H](CCC(=O)O)C(=O)N[C@@H](Cc1ccccc1)C(=O)N[C@H](C(=O)N[C@@H](C)C(=O)N[C@@H](Cc1c[nH]c2ccccc12)C(=O)N[C@@H](CC(C)C)C(=O)N[C@H](C(=O)N[C@@H](CCCNC(=N)N)C(=O)NCC(=O)N[C@@H](CCCNC(=N)N)C(=O)NCC(=O)O)C(C)C)[C@@H](C)CC)C(=O)O [liraglutide, Arg34,Lys26-(N-epsilon-(gamma-L-glutamyl(N-alfa-hexadecanoyl)))-GLP-1(7-37)]
0.7 mg/mL: Peptide concentration after 5 min (MeCN 0.0% w/w, pH 11.0, RT) | Peptide concentration after 5 min (MeCN 6.4% w/w, pH 5.6, 70° C.)
2.0 mg/mL: Peptide concentration after 5 min (MeCN 0.0% w/w, pH 11.0, 70° C.)
2.4 mg/mL: Peptide concentration after 5 min (MeCN 6.4% w/w, pH 6.2, 70° C.) | Peptide concentration after 180 min (MeCN 6.4% w/w, pH 9.5, RT)
3.3 mg/mL: Peptide concentration after 5 min (MeCN 6.4% w/w, pH 10.5, 70° C.)
3.2 mg/mL: Peptide concentration after 5 min (MeCN 6.4% w/w, pH 9.5, 70° C.)
0.9 mg/mL: Peptide concentration after 180 min (MeCN 6.4% w/w, pH 6.2, RT) | Peptide concentration after 5 min (MeCN 6.4% w/w, pH 6.9, RT) | Peptide concentration after 5 min (MeCN 6.4% w/w, pH 8.5, RT) | Peptide concentration after 5 min (MeCN 6.4% w/w, pH 9.0, RT) | Peptide concentration after 5 min (MeCN 6.4% w/w, pH 9.5, RT) | Peptide concentration after 5 min (MeCN 6.4% w/w, pH 10.5, RT)
1.9 mg/mL: Peptide concentration after 180 min (MeCN 6.4% w/w, pH 6.9, 5° C.)
2.8 mg/mL: Peptide concentration after 180 min (MeCN 6.4% w/w, pH 7.5, 5° C.) | Peptide concentration after 180 min (MeCN 6.4% w/w, pH 10.5, RT)
3.0 mg/mL: Peptide concentration after 5 min (MeCN 6.4% w/w, pH 6.9, 70° C.)
1.4 mg/mL: Peptide concentration after 24 h (MeCN 6.4% w/w, pH 6.2, RT)
3.1 mg/mL: Peptide concentration after 180 min (MeCN 6.4% w/w, pH 7.5, RT) | Peptide concentration after 5 min (MeCN 6.4% w/w, pH 10.0, 70° C.) | Peptide concentration after 180 min (MeCN 6.4% w/w, pH 10.0, RT)
2.3 mg/mL: Peptide concentration after 5 min (MeCN 6.4% w/w, pH 8.0, 70° C.) | Peptide concentration after 180 min (MeCN 6.4% w/w, pH 11.0, RT)
>4.0 mg/mL: Peptide concentration after 180 min (MeCN 0.0% w/w, pH 10.5, 70° C.) | Peptide concentration after 24 h (MeCN 0.0% w/w, pH 10.5, RT) | Peptide concentration after 180 min (MeCN 0.0% w/w, pH 11.0, 70° C.) | Peptide concentration after 24 h (MeCN 0.0% w/w, pH 11.0, RT) | Peptide concentration after 180 min (MeCN 6.4% w/w, pH 3.0, 70° C.) | Peptide concentration after 180 min (MeCN 6.4% w/w, pH 6.2, 70° C.) | Peptide concentration after 24 h (MeCN 6.4% w/w, pH 6.9, 5° C.) | Peptide concentration after 180 min (MeCN 6.4% w/w, pH 6.9, 70° C.) | Peptide concentration after 24 h (MeCN 6.4% w/w, pH 6.9, RT) | Peptide concentration after 24 h (MeCN 6.4% w/w, pH 7.5, 5° C.) | Peptide concentration after 180 min (MeCN 6.4% w/w, pH 7.5, 70° C.) | Peptide concentration after 24 h (MeCN 6.4% w/w, pH 7.5, RT) | Peptide concentration after 180 min (MeCN 6.4% w/w, pH 8.0, 70° C.) | Peptide concentration after 24 h (MeCN 6.4% w/w, pH 8.0, RT) | Peptide concentration after 180 min (MeCN 6.4% w/w, pH 8.5, 70° C.) | Peptide concentration after 24 h (MeCN 6.4% w/w, pH 8.5, RT) | Peptide concentration after 180 min (MeCN 6.4% w/w, pH 9.0, 70° C.) | Peptide concentration after 24 h (MeCN 6.4% w/w, pH 9.0, RT) | Peptide concentration after 180 min (MeCN 6.4% w/w, pH 9.5, 70° C.) | Peptide concentration after 24 h (MeCN 6.4% w/w, pH 9.5, RT) | Peptide concentration after 180 min (MeCN 6.4% w/w, pH 10.0, 70° C.) | Peptide concentration after 24 h (MeCN 6.4% w/w, pH 10.0, RT) | Peptide concentration after 180 min (MeCN 6.4% w/w, pH 10.5, 70° C.) | Peptide concentration after 24 h (MeCN 6.4% w/w, pH 10.5, RT) | Peptide concentration after 180 min (MeCN 6.4% w/w, pH 11.0, 70° C.) | Peptide concentration after 24 h (MeCN 6.4% w/w, pH 11.0, RT)
1.1 mg/mL: Peptide concentration after 5 min (MeCN 6.4% w/w, pH 7.5, 5° C.) | Peptide concentration after 5 min (MeCN 6.4% w/w, pH 7.5, RT)
2.5 mg/mL: Peptide concentration after 5 min (MeCN 6.4% w/w, pH 7.5, 70° C.) | Peptide concentration after 5 min (MeCN 6.4% w/w, pH 8.5, 70° C.) | Peptide concentration after 180 min (MeCN 6.4% w/w, pH 9.0, RT) | Peptide concentration after 5 min (MeCN 6.4% w/w, pH 11.0, 70° C.)
2.9 mg/mL: Peptide concentration after 180 min (MeCN 0.0% w/w, pH 10.5, RT) | Peptide concentration after 5 min (MeCN 6.4% w/w, pH 9.0, 70° C.)
2.7 mg/mL: Peptide concentration after 180 min (MeCN 6.4% w/w, pH 6.9, RT) | Peptide concentration after 180 min (MeCN 6.4% w/w, pH 8.5, RT)
0.8 mg/mL: Peptide concentration after 5 min (MeCN 0.0% w/w, pH 10.5, RT) | Peptide concentration after 5 min (MeCN 6.4% w/w, pH 6.9, 5° C.) | Peptide concentration after 5 min (MeCN 6.4% w/w, pH 11.0, RT)
2.2 mg/mL: Peptide concentration after 180 min (MeCN 0.0% w/w, pH 11.0, RT) | Peptide concentration after 5 min (MeCN 6.4% w/w, pH 3.0, 70° C.) | Peptide concentration after 180 min (MeCN 6.4% w/w, pH 8.0, RT)
0.1 mg/mL: Peptide concentration after 180 min (MeCN 6.4% w/w, pH 3.0, RT) | Peptide concentration after 5 min (MeCN 6.4% w/w, pH 3.6, RT) | Peptide concentration after 180 min (MeCN 6.4% w/w, pH 3.6, RT) | Peptide concentration after 5 min (MeCN 6.4% w/w, pH 4.3, 70° C.) | Peptide concentration after 180 min (MeCN 6.4% w/w, pH 4.3, 70° C.) | Peptide concentration after 5 min (MeCN 6.4% w/w, pH 4.3, RT) | Peptide concentration after 180 min (MeCN 6.4% w/w, pH 4.3, RT) | Peptide concentration after 24 h (MeCN 6.4% w/w, pH 4.3, RT) | Peptide concentration after 5 min (MeCN 6.4% w/w, pH 4.9, 5° C.) | Peptide concentration after 180 min (MeCN 6.4% w/w, pH 4.9, 5° C.) | Peptide concentration after 180 min (MeCN 6.4% w/w, pH 4.9, 70° C.) | Peptide concentration after 5 min (MeCN 6.4% w/w, pH 4.9, RT) | Peptide concentration after 180 min (MeCN 6.4% w/w, pH 4.9, RT) | Peptide concentration after 24 h (MeCN 6.4% w/w, pH 4.9, RT) | Peptide concentration after 5 min (MeCN 6.4% w/w, pH 5.6, 5° C.) | Peptide concentration after 180 min (MeCN 6.4% w/w, pH 5.6, 5° C.) | Peptide concentration after 24 h (MeCN 6.4% w/w, pH 5.6, 5° C.) | Peptide concentration after 5 min (MeCN 6.4% w/w, pH 5.6, RT) | Peptide concentration after 180 min (MeCN 6.4% w/w, pH 5.6, RT) | Peptide concentration after 24 h (MeCN 6.4% w/w, pH 5.6, RT) | Peptide concentration after 5 min (MeCN 6.4% w/w, pH 6.2, 5° C.)
0.2 mg/mL: Peptide concentration after 5 min (MeCN 6.4% w/w, pH 3.0, RT) | Peptide concentration after 24 h (MeCN 6.4% w/w, pH 4.9, 5° C.) | Peptide concentration after 180 min (MeCN 6.4% w/w, pH 6.2, 5° C.) | Peptide concentration after 24 h (MeCN 6.4% w/w, pH 6.2, 5° C.) | Peptide concentration after 5 min (MeCN 12.7% w/w, pH 3.0, 5° C.)
2.6 mg/mL: Peptide concentration after 5 min (MeCN 0.0% w/w, pH 10.5, 70° C.)
1.0 mg/mL: Peptide concentration after 180 min (MeCN 6.4% w/w, pH 5.6, 70° C.) | Peptide concentration after 5 min (MeCN 6.4% w/w, pH 8.0, RT) | Peptide concentration after 5 min (MeCN 6.4% w/w, pH 10.0, RT)
0.4 mg/mL: Peptide concentration after 5 min (MeCN 6.4% w/w, pH 3.6, 70° C.) | Peptide concentration after 5 min (MeCN 6.4% w/w, pH 6.2, RT)
0.3 mg/mL: Peptide concentration after 180 min (MeCN 6.4% w/w, pH 3.6, 70° C.) | Peptide concentration after 5 min (MeCN 6.4% w/w, pH 4.9, 70° C.)
